# This is one part of the list. For some assays here: The exact form of the protein is not confirmed.
# Legend:
# Experiment in all cases: protein microarray (ProtoArray v5.0), streptavidin-Alexa Fluor 647
# Conditions in all cases: 3'-biotin; 20 mM Tris (pH 7.5), 5 mM MgCl2, 100 mM KCl, 0.1% Tween-20, A/T-rich and random oligonucleotide blockers; temperature not stated; high values mean tight binding
# [1] = test system: TEAD4 (human)
# [2] = test system: TEKT2 (human)
# [3] = biological target: T1, TEKT4 (UniProt Q8WW24)
# T1 sequence: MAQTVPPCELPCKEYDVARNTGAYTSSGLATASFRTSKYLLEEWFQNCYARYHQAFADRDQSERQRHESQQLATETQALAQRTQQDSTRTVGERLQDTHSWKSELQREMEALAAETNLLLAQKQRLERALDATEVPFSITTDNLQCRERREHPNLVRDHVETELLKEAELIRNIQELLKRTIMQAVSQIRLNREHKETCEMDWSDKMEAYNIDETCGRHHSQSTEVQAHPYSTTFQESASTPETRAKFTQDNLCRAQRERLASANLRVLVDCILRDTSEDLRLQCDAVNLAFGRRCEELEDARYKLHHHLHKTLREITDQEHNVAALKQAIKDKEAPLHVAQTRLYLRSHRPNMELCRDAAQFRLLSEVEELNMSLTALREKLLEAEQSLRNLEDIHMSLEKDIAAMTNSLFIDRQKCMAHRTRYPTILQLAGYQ
# [4] = test system: TESC (human)
# [5] = test system: TEX13B (human)
# [6] = test system: TEX264 (human)
# [7] = test system: TF (human)
# [8] = test system: TFF2 (human)
# [9] = test system: TGDS (human)
# [10] = test system: TGFB1I1 (human)
# [11] = test system: TGM1 (human)
# [12] = test system: TGM4 (human)
# [13] = test system: THAP domain-containing protein 3 (human)
# [14] = test system: THBD (human)
# [15] = test system: THEM5 (human)
# [16] = test system: THG1L (human)
# [17] = test system: THOC3 (human)
# [18] = test system: THOP1 (human)
# [19] = test system: TIAF1 (human)
# [20] = test system: TICAM2 (human)
sequence,measurement,setting,value
GGGAGGCTGAGGCAGG [G4-1 biotinylated (PQS2)],binding signal,[1],-0.326 z-score
same,binding signal,[2],-0.343 z-score
same,binding signal,[3],-0.341 z-score
same,binding signal,[4],-0.338 z-score
same,binding signal,[5],-0.344 z-score
same,binding signal,[6],-0.323 z-score
same,binding signal,[7],-0.35 z-score
same,binding signal,[8],-0.314 z-score
same,binding signal,[9],-0.264 z-score
same,binding signal,[10],-0.312 z-score
same,binding signal,[11],-0.291 z-score
same,binding signal,[12],-0.274 z-score
same,binding signal,[13],-0.316 z-score
same,binding signal,[14],-0.312 z-score
same,binding signal,[15],-0.347 z-score
same,binding signal,[16],-0.327 z-score
same,binding signal,[17],-0.336 z-score
same,binding signal,[18],-0.311 z-score
same,binding signal,[19],-0.3 z-score
same,binding signal,[20],-0.313 z-score

# Not a retest: entries from further up.
sequence,measurement,setting,value
GGGAGGCTGAGGCAGG [G4-1 biotinylated (PQS2)],binding signal,[11],-0.291 z-score
same,binding signal,[12],-0.274 z-score

# Source: article PMC5996148
